From article PMC10290656 come the findings set out here.

The target in this assay is T1, Tribbles homolog 1 (Trib1), endogenous in primary murine hepatocytes (mouse (endogenous in primary murine hepatocytes)) (UniProt Q8K4K4).
T1 sequence: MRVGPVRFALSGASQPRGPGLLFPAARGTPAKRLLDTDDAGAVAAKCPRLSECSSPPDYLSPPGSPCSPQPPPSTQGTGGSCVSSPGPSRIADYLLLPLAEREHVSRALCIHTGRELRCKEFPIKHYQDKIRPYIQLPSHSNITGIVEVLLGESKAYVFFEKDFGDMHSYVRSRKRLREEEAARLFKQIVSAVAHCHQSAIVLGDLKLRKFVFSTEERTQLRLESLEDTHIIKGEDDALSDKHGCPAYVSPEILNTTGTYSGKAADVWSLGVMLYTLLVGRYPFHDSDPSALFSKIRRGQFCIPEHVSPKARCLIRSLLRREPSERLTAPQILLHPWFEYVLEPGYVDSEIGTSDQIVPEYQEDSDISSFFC
The assay can be described thus: co-IP; immunoprecipitation with anti-Trib1, anti-Nrf2 or IgG from lysates of primary murine hepatocytes; endogenous proteins.

No constants are given. Whether binding was seen depends on the method and setting. In cells and extracts the contact can be indirect. Some entries that bind do so weakly or less than the wild type.

B1: Nuclear factor erythroid 2-related factor 2 (Nrf2), endogenous in primary murine hepatocytes (protein, UniProt Q60795 1-597)
chain: MMDLELPPPGLQSQQDMDLIDILWRQDIDLGVSREVFDFSQRQKDYELEKQKKLEKERQEQLQKEQEKAFFAQFQLDEETGEFLPIQPAQHIQTDTSGSASYSQVAHIPKQDALYFEDCMQLLAETFPFVDDHESLALDIPSHAESSVFTAPHQAQSLNSSLEAAMTDLSSIEQDMEQVWQELFSIPELQCLNTENKQLADTTAVPSPEATLTEMDSNYHFYSSISSLEKEVGNCGPHFLHGFEDSFSSILSTDDASQLTSLDSNPTLNTDFGDEFYSAFIAEPSDGGSMPSSAAISQSLSELLDGTIEGCDLSLCKAFNPKHAEGTMEFNDSDSGISLNTSPSRASPEHSVESSIYGDPPPGFSDSEMEELDSAPGSVKQNGPKAQPAHSPGDTVQPLSPAQGHSAPMRESQCENTTKKEVPVSPGHQKAPFTKDKHSSRLEAHLTRDELRAKALHIPFPVEKIINLPVDDFNEMMSKEQFNEAQLALIRDIRRRGKNKVAAQNCRKRKLENIVELEQDLGHLKDEREKLLREKGENDRNLHLLKRRLSTLYLEVFSMLRDEDGKPYSPSEYSLQQTRDGNVFLVPKSKKPDTKKN
For the molecule B1, the binding entry is “binds”.
